Reference: PubChem BioAssay AID493014 (National Center for Advancing Translational Sciences (NCATS), 2011)
The list shows a part of the results. The main result of the screen is listed elsewhere. These columns were measured beside it and carry no call. Compounds called inactive in the main read-out are mostly missing here. The note in brackets gives the kind of curve behind each potency; many fits are weak.

Test: qHTS Assay to Find Inhibitors of Chronic Active B-Cell Receptor Signaling
Conditions: ABC-DLBCL IkBa-CBG/CBR reporter, luminescence ratio (green luciferase fused to IkBa over red control in TMD8 lymphoma cells), 4 h
Summary of the method: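 Compounds up to 46 uM were incubated four hours with TMD8 cells whose green CBG68 luciferase is fused to IkappaBalpha; red CBR luminescence normalised the signal, and concentration-effect curves were fitted to fusion, red and ratio data.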

[1] = measured here: CBR red luminescence, cell number
[2] = measured here: IkBa-CBG green luminescence

Row | Structure (SMILES) | AC50 [1] | AC50 [2]
1 | CC(C)C(=O)c1cn(CC(=O)NCc2ccco2)c2ccccc12 | 29.1 µM [rising, single point] | –
2 | O=C(NCc1ccccn1)c1ccccc1-c1ccccc1 | 14.1 µM [rising, single point] | –
3 | COC(=O)c1ccc(COc2ccc(F)cc2)o1 | 1.26 µM [rising, full curve, poor fit] | –
4 | COc1ccc(N/C=C\C(=O)c2ccc3c(c2)OCO3)cc1 | 0.411 µM [rising, partial curve, poor fit] | –
5 | CN(C)c1ccc(/C=C/C(=O)c2ccc(O)cc2)cc1[N+](=O)[O-] | 11.2 µM [falling, partial curve] | –
6 | CC(C)NC(=O)c1c2c(nc3ccccc13)CCCC2 | 0.411 µM [rising, full curve, poor fit] | –
7 | COc1cccc(C(=O)c2sc(NC(C)C)nc2N)c1 | 6.51 µM [falling, full curve] | 2.31 µM [rising, full curve, poor fit]
8 | COc1cc2c(cc1NC(=O)C(C)NCc1ccccc1)oc1ccccc12 (stereo not drawn) | 3.26 µM [falling, full curve] | –
9 | CCC(Nc1nc(-c2ccccc2)nc2ccccc12)C(=O)O (stereo not drawn) | 18.4 µM [falling, single point] | –
10 | O=C(O)CSCC(=O)Nc1ccc(C(=O)O)cc1 | 25.9 µM [falling, single point] | –
11 | CN(C)c1ccc(/C=C/C(=O)c2cccc(Br)c2)cc1 | 5.01 µM [rising, full curve, poor fit] | –
12 | O=C(O)c1[nH]c2ccccc2c1C(c1cc(Br)ccc1O)c1c(C(=O)O)[nH]c2ccccc12 | 31.6 µM [rising, single point] | –
13 | CCOC(=O)Cc1csc(NC(=S)NC(=O)c2ccc(C)cc2)n1 | 6.51 µM [falling, partial curve] | 20.6 µM [falling, single point]
14 | NCCNC(=O)Cc1cccc(NC(=O)Cc2ccc(Nc3ncnc4c3ncn4[C@@H]3O[C@H](CO)[C@@H](O)[C@H]3O)cc2)c1 | – | 2.82 µM [falling, partial curve]
15 | CC1(C)Cc2c(cnn2-c2ccccc2)C(NC(=O)c2ccoc2)C1 (stereo not drawn) | 3.55 µM [rising, partial curve, poor fit] | –
16 | COc1cc(NC(=O)c2ccccc2[N+](=O)[O-])ccc1NC(=O)C(C)C | 7.31 µM [rising, partial curve, poor fit] | –
17 | CCOc1ccccc1NC(=O)CN(c1ccc(OC)cc1)S(=O)(=O)c1c(C)noc1C | 12.6 µM [rising, partial curve] | 12.6 µM [falling, single point]
18 | O=C(Nc1ccccn1)c1cc2ccccc2o1 | 3.66 µM [falling, full curve] | –
19 | Cc1ccnc(NC(=O)c2ccc(S(=O)(=O)NCc3ccco3)cc2)c1 | 23.1 µM [falling, single point] | –
20 | C=CCNC(=O)c1c2c(nc3ccccc13)-c1ccccc1CC2 | 6.31 µM [falling, single point] | –

Row | Structure (SMILES) | AC50 [1] | AC50 [2]
21 | Cc1cccc(CS(=O)(=O)c2ncc(Cl)c(C(=O)Nc3ccc(F)cc3)n2)c1 | 11.2 µM [falling, partial curve, poor fit] | –
22 | CCCN1CCN(C(=O)c2ccc(-c3ccc([N+](=O)[O-])cc3)o2)CC1 | 7.31 µM [rising, partial curve] | –
23 | CC(=O)Nc1ccc(C=NNC(=O)c2ccc(NS(=O)(=O)c3cccs3)cc2)cc1 | 11.6 µM [falling, partial curve] | –
24 | COc1ccc(C2SCC(=O)N2CCCN(C)C)cc1 (stereo not drawn) | 9.2 µM [rising, partial curve, poor fit] | –
25 | Cc1cccc(NC(=O)CSCC(=O)Nc2cc(Cl)ccc2N2CCOCC2)c1 | 18.4 µM [falling, single point] | –
26 | CCCCCCCCCCn1c2c(c(=N)c3c1CCC3)CCC2 | 8.91 µM [falling, single point] | –
27 | CC1=CC(=O)C=C(C)C1=NOS(=O)(=O)c1ccccc1 | 29.1 µM [falling, single point] | –
28 | Cc1ccc(NC(=O)COC(=O)c2cc(Cl)ccc2[N+](=O)[O-])c(C)c1 | 0.00411 µM [rising, full curve, poor fit] | –
29 | O=C(COc1cccc2c1CCNC2=O)Nc1cccc(F)c1 | 29.1 µM [falling, single point] | –
30 | CCOC(=O)c1c(C)[nH]c(C2=NNC(=NC(C)COC)SC2)c1C (stereo not drawn) | 22.4 µM [falling, single point] | –
31 | COC(=O)c1ccc2nc(NC(=O)CN3C(=O)CCC3=O)sc2c1 | 10 µM [falling, partial curve, poor fit] | –
32 | COc1ccc(-c2cccc(NS(=O)(=O)c3cc([N+](=O)[O-])ccc3C)c2)nn1 | 0.82 µM [falling, full curve, poor fit] | –
33 | CC(C)c1nnc(NC(=O)c2nc(S(=O)(=O)Cc3ccc(F)cc3)ncc2Cl)s1 | 22.4 µM [falling, single point] | 11.2 µM [rising, partial curve, poor fit]
34 | COC(=O)c1ccc(CSc2nc3ccccc3c(=O)n2N)cc1 | 3.16 µM [falling, partial curve, poor fit] | –
35 | CCOC(=O)c1c(N2C(=O)Nc3ccccc3N2O)n[nH]c1-c1cccc(OC)c1 | 1.78 µM [falling, partial curve, poor fit] | –
36 | CN(/N=C/c1ccc2c(c1)OCO2)c1ccccc1 | 1.64 µM [rising, full curve, poor fit] | –
37 | BrC(=C\c1ccccc1)/C=N/N1CCN(Cc2ccccc2)CC1 | 3.26 µM [falling, single point] | –
38 | CCOc1ccccc1-c1nc(-c2cc3ccc(C)cc3[nH]c2=O)no1 | 0.164 µM [falling, full curve, poor fit] | –
39 | CCN(CC)c1ccc(/C=C2/C(=O)N(c3ccc([N+](=O)[O-])cc3)N=C2N2CCOCC2)cc1 | 35.5 µM [rising, single point] | –

Reformatted with tabs: part of the list above.
Row	Structure (SMILES)	AC50 [1]	AC50 [2]
21	Cc1cccc(CS(=O)(=O)c2ncc(Cl)c(C(=O)Nc3ccc(F)cc3)n2)c1	11.2 µM [falling, partial curve, poor fit]	–
22	CCCN1CCN(C(=O)c2ccc(-c3ccc([N+](=O)[O-])cc3)o2)CC1	7.31 µM [rising, partial curve]	–
24	COc1ccc(C2SCC(=O)N2CCCN(C)C)cc1 (stereo not drawn)	9.2 µM [rising, partial curve, poor fit]	–
29	O=C(COc1cccc2c1CCNC2=O)Nc1cccc(F)c1	29.1 µM [falling, single point]	–
32	COc1ccc(-c2cccc(NS(=O)(=O)c3cc([N+](=O)[O-])ccc3C)c2)nn1	0.82 µM [falling, full curve, poor fit]	–
34	COC(=O)c1ccc(CSc2nc3ccccc3c(=O)n2N)cc1	3.16 µM [falling, partial curve, poor fit]	–
37	BrC(=C\c1ccccc1)/C=N/N1CCN(Cc2ccccc2)CC1	3.26 µM [falling, single point]	–
39	CCN(CC)c1ccc(/C=C2/C(=O)N(c3ccc([N+](=O)[O-])cc3)N=C2N2CCOCC2)cc1	35.5 µM [rising, single point]	–
